{
  "sequences": {"note": "Protein sequences, listed by entry. Tags and fused reporters are not part of them.", "UniProt P19821, whole entry": "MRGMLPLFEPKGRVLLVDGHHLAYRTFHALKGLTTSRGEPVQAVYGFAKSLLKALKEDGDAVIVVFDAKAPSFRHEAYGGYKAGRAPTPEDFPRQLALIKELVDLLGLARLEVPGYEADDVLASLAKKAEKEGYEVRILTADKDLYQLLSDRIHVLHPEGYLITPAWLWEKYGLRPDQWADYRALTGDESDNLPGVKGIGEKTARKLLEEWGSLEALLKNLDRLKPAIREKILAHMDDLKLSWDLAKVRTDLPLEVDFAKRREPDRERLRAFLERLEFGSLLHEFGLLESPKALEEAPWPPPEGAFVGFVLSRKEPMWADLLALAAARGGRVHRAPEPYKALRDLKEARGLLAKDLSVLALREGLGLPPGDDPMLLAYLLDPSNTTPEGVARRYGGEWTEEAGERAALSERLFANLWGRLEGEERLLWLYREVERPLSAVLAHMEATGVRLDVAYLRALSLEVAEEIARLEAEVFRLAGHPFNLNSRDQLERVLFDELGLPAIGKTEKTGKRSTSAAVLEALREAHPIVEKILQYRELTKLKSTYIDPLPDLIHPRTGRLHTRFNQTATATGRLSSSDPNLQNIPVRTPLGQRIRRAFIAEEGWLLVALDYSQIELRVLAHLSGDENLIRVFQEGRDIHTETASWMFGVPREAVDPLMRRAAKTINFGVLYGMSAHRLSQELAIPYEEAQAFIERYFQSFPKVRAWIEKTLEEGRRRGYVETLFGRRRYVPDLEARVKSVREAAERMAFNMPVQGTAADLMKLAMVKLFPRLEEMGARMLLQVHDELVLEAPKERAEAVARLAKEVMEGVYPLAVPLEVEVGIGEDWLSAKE"},
  "source": "paper PMC5792436",
  "molecular_target": "Taq DNA polymerase, purified (pHis-Taq) (UniProt P19821)",
  "assay": "EMSA",
  "conditions": "2 nM DNA, no Mg2+, no detectable interaction up to 1000 nM Taq; 10 mM Tris-HCl pH 7.9, 50 mM KCl, 1 mM EDTA, 5% glycerol, 1 mM DTT, 25 ug/ml BSA; no MgCl2, no poly(dI-dC); 20 min at room temperature; 6% PAGE in 0.5X TBE; recombinant protein; protein details: His (inserted at NcoI site of pTrc-Taq); label: 5' biotin; single-stranded DNA",
  "note": "For at least one entry, the source does not settle the construct or the ends of the probe.",
  "data": [
    {"sequence": "TACCGAGCTCTTACGCGTGCCTCTGACTTGCCTCAGAGC [Bio-Olig2.5]", "values": [
      {"measurement": "Kd", "result": "> 1000", "unit": "nM"}
    ]}
  ]
}
